This test deals with CD8F1 mice, subcutaneous mammary adenocarcinoma, T/C%. Nature of the test: NCI In Vivo Anticancer Drug Screen. Data for tumor model Mammary Adenocarcinoma CD8F1 (subcutaneous) in CD8F1. To be noted: higher T/C = larger tumour. The procedure, abridged:
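Antitumor activity is assessed in transplantable-tumor mice by comparing the treated group with a vehicle-treated control group. Survival or tumor size serves as the measure, reported as T divided by C.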

The mark [1] stands for this setting: T/C endpoint: median tumor weight change, dose: 125.0 mg/kg/injection, schedule: Q01DX001 (ip), vehicle: Klucel (hydroxypropylcellulose) (HPC).
Where [2] appears, read: T/C endpoint: median tumor weight change, dose: 250.0 mg/kg/injection, schedule: Q01DX001 (ip), vehicle: Klucel (hydroxypropylcellulose) (HPC).
Setting [3] is: T/C endpoint: median tumor weight change, dose: 500.0 mg/kg/injection, schedule: Q01DX001 (ip), vehicle: Klucel (hydroxypropylcellulose) (HPC).
[4] abbreviates: T/C endpoint: median tumor weight change, dose: 1000.0 mg/kg/injection, schedule: Q01DX001 (ip), vehicle: Klucel (hydroxypropylcellulose) (HPC).
The mark [5] stands for this setting: T/C endpoint: median tumor weight (est.), dose: 200.0 mg/kg/injection, schedule: Q07DX005 (ip), vehicle: saline with Tween-80.
Where [6] appears, read: T/C endpoint: median tumor weight (est.), dose: 400.0 mg/kg/injection, schedule: Q07DX005 (ip), vehicle: saline with Tween-80.
[7] abbreviates: T/C endpoint: median tumor weight (est.), dose: 200.0 mg/kg/injection, schedule: Q07DX005 (ip), vehicle: Klucel (hydroxypropylcellulose) (HPC).

Molecules are shown by their SMILES. The list does not hold the whole screen: it gathers tests that were run many times, whatever their T/C, doses with no T/C, and many T/C values between a quarter and a half above the control. Further doses and runs are listed elsewhere. T/C: endpoint of the treated group in % of that of the vehicle group. Schedules are NCI's codes, read here as Q, the interval in days (D) or hours (H), X, the number of doses. Some T/C values carry the count of animals alive at the toxicity check (mostly the fifth day); where none is given, no animal had died by that day. Some entries give survivors of the animals treated and no T/C: the source files T/C as zero there, which appears to mark a toxic dose or a test without result, not a measured value. Counts of survivors are from the toxicity check (mostly the fifth day) where no day follows; animals may have died later.

As for `COc1ccc2c(c1)C(O)(CN)CCCCC(OC)CCCC2` (stereo unspecified), the survivor count under setting [1] is 4 of 10 on day 39, the survivor count under setting [2] was 0 of 10 on day 39, the survivor count under setting [3] was 0 of 10 on day 39 and the survivor count under setting [4] is listed as 0 of 10 on day 39.

As to `CC1(C)CC1(Br)Br`, the survivor count runs as follows: under setting [5], 4 of 10 on day 30; under setting [6], 0 of 10 on day 30.

`CC1=NN(c2cccc(S(=O)(=O)O)c2)C(=O)C1N=Nc1cc(Cl)cc(S(=O)(=O)O)c1O.CC1=NN(c2cccc(S(=O)(=O)O)c2)C(=O)C1N=Nc1cc(Cl)cc(S(=O)(=O)O)c1O.[Cr]` (stereo unspecified): the survivor count (T/C endpoint: median tumor weight change, dose: 500.0 mg/kg/injection, schedule: Q01DX001 (ip), vehicle: saline) was 3 of 10 on day 36; the survivor count (T/C endpoint: median tumor weight change, dose: 1000.0 mg/kg/injection, schedule: Q01DX001 (ip), vehicle: saline) is reported as 0 of 10 on day 36; the survivor count (T/C endpoint: median tumor weight change, dose: 2000.0 mg/kg/injection, schedule: Q01DX001 (ip), vehicle: saline) is recorded as 0 of 10 on day 36.

For `CCCCCC[Se][Se]CCCCCC`, the survivor count is reported as 5 of 10 on day 33 under setting [1] and 1 of 10 on day 33 under setting [2].

For the compound `Cc1ccc(S(=O)(=O)N/N=C/C(=O)O)cc1`, the survivor count is, setting by setting: (T/C endpoint: median tumor weight (est.), dose: 12.5 mg/kg/injection, schedule: Q07DX005 (ip), vehicle: other) 5 of 10 on day 30; (T/C endpoint: median tumor weight (est.), dose: 200.0 mg/kg/injection, schedule: Q07DX005 (ip), vehicle: other) 6 of 10 on day 30; (T/C endpoint: median tumor weight (est.), dose: 400.0 mg/kg/injection, schedule: Q07DX005 (ip), vehicle: other) 2 of 10 on day 30.

As to `CCN(CC)Cc1cc2[nH]c3c4ccc(Cl)cc4ncc3c2cc1OC`, the survivor count is, setting by setting: (T/C endpoint: median tumor weight change, dose: 250.0 mg/kg/injection, schedule: Q01DX001 (ip), vehicle: saline with Tween-80) 0 of 10 on day 29; (T/C endpoint: median tumor weight change, dose: 500.0 mg/kg/injection, schedule: Q01DX001 (ip), vehicle: saline with Tween-80) 0 of 10 on day 29.

As to `O=C1NC(=O)/C(=C/C=C/c2ccccc2)S1`, the T/C was 134 % of control (T/C endpoint: median tumor weight (est.), dose: 50.0 mg/kg/injection, schedule: Q07DX005 (ip), vehicle: saline with Tween-80, evaluated on day 30) and 136 % of control [9 of 10 alive] (T/C endpoint: median tumor weight (est.), dose: 400.0 mg/kg/injection, schedule: Q07DX005 (ip), vehicle: saline with Tween-80, evaluated on day 30).

With `Cc1nn(CCO)c(C)c1N=[N+]([O-])c1c(C)nn(CCO)c1C`, the survivor count under setting [7] is listed as 0 of 10 on day 30.

For the compound `O=C(Nc1ccc(N=C=S)cc1Cl)c1cc(Cl)cc(Cl)c1O`, the survivor count (T/C endpoint: median tumor weight (est.), dose: 100.0 mg/kg/injection, schedule: Q07DX005 (ip), vehicle: Klucel (hydroxypropylcellulose) (HPC)) is given as 0 of 10 on day 30; the survivor count under setting [7] was 0 of 10 on day 30; the survivor count (T/C endpoint: median tumor weight (est.), dose: 200.0 mg/kg/injection, schedule: Q07DX005 (ip), vehicle: saline) is reported as 1 of 10 on day 30; the survivor count (T/C endpoint: median tumor weight (est.), dose: 400.0 mg/kg/injection, schedule: Q07DX005 (ip), vehicle: Klucel (hydroxypropylcellulose) (HPC)) is on record as 0 of 10 on day 30.

Take `COC(=Nc1ccccc1)SSC(C)C`: for the setting “T/C endpoint: median tumor weight (est.), dose: 100.0 mg/kg/injection, schedule: Q07DX005 (ip), vehicle: saline with Tween-80, evaluated on day 30”, the T/C is 126 % of control [5 of 6 alive on day 30]. Also, the survivor count reads like this: under setting [5], 6 of 10 on day 30; under setting [6], 2 of 10 on day 30.

For `CCN1/C(=C/C=C/C=C/c2sc3ccccc3[n+]2CC)Sc2ccccc21`, the survivor count is listed as 3 of 10 (T/C endpoint: median tumor weight (est.), dose: 1.5 mg/kg/injection, schedule: Q07DX006 (ip), vehicle: saline); 5 of 10 (T/C endpoint: median tumor weight (est.), dose: 3.0 mg/kg/injection, schedule: Q07DX006 (ip), vehicle: saline); 1 of 10 (T/C endpoint: median tumor weight (est.), dose: 6.0 mg/kg/injection, schedule: Q07DX006 (ip), vehicle: saline).

As for `CNC=O`, the survivor count is, setting by setting: (T/C endpoint: median tumor weight change, dose: 400.0 mg/kg/injection, schedule: Q01DX001 (ip), vehicle: saline sonified) 4 of 10 on day 34; (T/C endpoint: median tumor weight change, dose: 800.0 mg/kg/injection, schedule: Q01DX001 (ip), vehicle: saline sonified) 3 of 10 on day 34; (T/C endpoint: median tumor weight change, dose: 1600.0 mg/kg/injection, schedule: Q01DX001 (ip), vehicle: saline sonified) 0 of 10 on day 34; (T/C endpoint: median tumor weight change, dose: 3200.0 mg/kg/injection, schedule: Q01DX001 (ip), vehicle: saline sonified) 0 of 10 on day 34. The T/C (T/C endpoint: median tumor weight change, dose: 400.0 mg/kg/injection, schedule: Q01DX001 (ip), vehicle: saline, evaluated on day 34) was 136 % of control.

Take `COC(C(=O)C(O)C(C)O)C1CC2C=C3C=C(OC4CC(OC5CC(O)C(OC)C(C)O5)C(OC(C)=O)C(C)O4)C(C)C(=O)C3=C(O)C2=C(O)C1OC1CC(OC2CC(OC3CC(C)(O)C(O)C(C)O3)C(O)C(C)O2)C(O)C(C)O1` (stereo unspecified): where the note is “T/C endpoint: mean tumor weight, dose: 4.0 mg/kg/injection, schedule: Q07DX005 (ip), vehicle: saline”, the survivor count is given as 2 of 10.

`c1ccc([C@H]2CN3CCSC3=N2)cc1`: the T/C (T/C endpoint: median tumor weight (est.), dose: 25.0 mg/kg/injection, schedule: Q07DX005 (ip), vehicle: saline, evaluated on day 34) was 131 % of control.

`CN=C(NC#N)NCCSCc1nc[nH]c1C`: the survivor count under setting [3] is given as 4 of 10 on day 32; the survivor count under setting [4] was 0 of 10 on day 32; the survivor count (T/C endpoint: median tumor weight change, dose: 2000.0 mg/kg/injection, schedule: Q01DX001 (ip), vehicle: Klucel (hydroxypropylcellulose) (HPC)) was 0 of 10 on day 32.

With `O=c1[nH]cnc2[nH]ncc12`, the survivor count runs as follows: (T/C endpoint: median tumor weight change, dose: 500.0 mg/kg/injection, schedule: Q01DX001 (ip), vehicle: suspension in saline) 1 of 10 on day 33; (T/C endpoint: median tumor weight change, dose: 1000.0 mg/kg/injection, schedule: Q01DX001 (ip), vehicle: suspension in saline) 0 of 10 on day 33; (T/C endpoint: median tumor weight change, dose: 2000.0 mg/kg/injection, schedule: Q01DX001 (ip), vehicle: suspension in saline) 0 of 10 on day 33.

For `O=S(=O)(O)O`, the survivor count is listed as 4 of 10 on day 28 under setting [1], 1 of 10 on day 28 under setting [2], 1 of 10 on day 28 under setting [3] and 0 of 10 on day 28 under setting [4].
